Source: PubChem BioAssay AID720504 (National Center for Advancing Translational Sciences (NCATS), 2013)
Hit rate of the full screen: of about 360,000 compounds, about 10,000 (2.8%) were called active. The inconclusive results got no clear call from the source; some entries with a clear call stand among them for comparison. The call rests on the fitted dose curve; in most records, active means well fitted inhibition curve with a large enough effect; inconclusive means small, poorly fitted or top-dose-only effect; inactive means flat fitted curve, though single readings scatter. Potencies of inconclusive entries are doubtful fits and often do not repeat.

The chains behind the UniProt entries cited, without tags or fusion partners.
UniProt P53350, whole entry, looked up: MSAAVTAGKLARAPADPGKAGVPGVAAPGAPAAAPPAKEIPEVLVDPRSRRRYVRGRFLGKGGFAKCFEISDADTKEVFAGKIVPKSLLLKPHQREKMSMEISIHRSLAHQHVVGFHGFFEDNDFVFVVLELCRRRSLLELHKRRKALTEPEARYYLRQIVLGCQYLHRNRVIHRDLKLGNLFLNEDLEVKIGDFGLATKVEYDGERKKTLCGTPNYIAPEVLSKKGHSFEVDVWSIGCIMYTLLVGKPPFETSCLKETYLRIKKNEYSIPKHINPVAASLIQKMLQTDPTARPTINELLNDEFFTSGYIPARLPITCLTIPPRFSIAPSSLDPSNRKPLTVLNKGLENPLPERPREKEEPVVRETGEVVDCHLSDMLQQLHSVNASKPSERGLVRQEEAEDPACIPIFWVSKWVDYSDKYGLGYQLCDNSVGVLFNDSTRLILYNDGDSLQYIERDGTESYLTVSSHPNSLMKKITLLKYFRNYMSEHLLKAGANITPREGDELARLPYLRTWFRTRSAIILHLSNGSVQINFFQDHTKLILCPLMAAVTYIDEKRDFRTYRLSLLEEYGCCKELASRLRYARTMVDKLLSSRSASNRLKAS

The molecules below were run against Serine/threonine-protein kinase PLK1 (Homo sapiens) (UniProt P53350) (assay: qHTS for Inhibitors of PLK1-PDB (polo-like kinase 1 - polo-box domain): Primary Screen). Conditions: Plk1 PBD binding of FITC phosphopeptide, fluorescence polarization.
Further: nearly all actives have a fitted effect of over 65% in size.
On the % scale 0 is the no-effect control and ±100 the full control effect; potency means the concentration at half of the fitted maximal effect.
Wherever max response, negative = inhibition is given: series mostly up to about 57 µM.

| SMILES | Potency | max response, negative = inhibition |
| --- | --- | --- |
| COc1ccc(NS(=O)(=O)c2ccc(F)c(Cl)c2)cn1 | inconclusive: 33.6 µM [inhibitor, partial curve] | – |
| COc1cccc(NC(=S)N(Cc2ccc(Cl)cc2)Cc2ccc(C(=O)O)cc2)c1 | – | inconclusive: -38.4% [inhibitor] |
| Cc1ccnc(NS(=O)(=O)c2ccc(N3C(=O)Nc4ccccc4N3O)cc2)c1 | – | inconclusive: -34.7% [inhibitor] |
| O=C1CCCC(O)=C1N=Nc1ccc(C(=O)O)cc1 | inconclusive: 33.6 µM [inhibitor, single point] | – |
| O=C(Cc1cccc(F)c1F)NC1CCCN(Cc2ccc(Cl)cc2)C1 (centres undefined) | inconclusive: 21.2 µM [inhibitor, partial curve] | – |
| O=C(O)c1ccc(COc2ccc(CO)cc2Cl)cc1 | inconclusive: 37.7 µM [inhibitor, single point] | – |
| COc1ccc(NC(=O)c2ccc(S(=O)(=O)N(C)c3ccccc3)cc2)cc1S(=O)(=O)N1CCOCC1 | – | inactive: 1.76% |
| CNC(=S)N/N=C/c1c(C)nn(-c2cccc(Cl)c2)c1Cl | inconclusive: 26.7 µM [inhibitor, partial curve] | – |
| CC(C)c1ccccc1NC(=O)CCc1nc2ccccc2s1 | inconclusive: 26.7 µM [inhibitor, partial curve] | – |
| Cc1ccc(Sc2cc(C(=O)c3ccccc3C(=O)O)ccc2[N+](=O)[O-])cc1 | inconclusive: 29.9 µM [inhibitor, partial curve] | – |
| CC(=O)N1C(=O)/C(=C2\SC(=S)N(NS(=O)(=O)c3ccc(C)cc3)C2=O)c2ccccc21 | active: 16.8 µM | – |
| CNC(=O)c1c(NC(=O)CCS(=O)(=O)c2ccc(C)cc2)sc2c1CCN(C(=O)OC)C2 | inconclusive: 29.9 µM [inhibitor, single point] | – |
| COC(=O)c1c(C(=O)OC)c2cccc3cc(-c4ccccc4)c4ccc1c4n32 | inconclusive: 33.6 µM [inhibitor, partial curve] | – |
| C[C@H](NC(=O)c1ccco1)C(=O)NNC(=O)COc1cccc(C(F)(F)F)c1 | – | inactive: 4.21% |
| COc1cc([C@H]2OC[C@H]3[C@@H]2CO[C@@H]3c2ccc(O[C@H]3O[C@H](CO)[C@@H](O)[C@H](O)[C@H]3O)c(OC)c2)ccc1O[C@@H]1O[C@H](CO)[C@@H](O)[C@H](O)[C@H]1O | – | inactive: -15.4% |
| Clc1ncccc1-c1nc2ccccc2s1 | inconclusive: 21.2 µM [inhibitor, partial curve] | – |
| COc1ccc(-c2oc3ccc(-c4cc(OC)c(OC)c(OC)c4)cc3c2C#Cc2ccsc2)cc1 | inconclusive: 37.7 µM [inhibitor, single point] | – |
| COc1ccc(SC[C@H](C)CN2CC[C@H](C(C)(C)C)CCC2=O)cc1 | inconclusive: 11.9 µM [inhibitor, single point] | – |
| NC(=O)NC(CC(=O)OCC(=O)NC(=O)NCc1ccco1)c1ccc(Cl)cc1 (centres undefined) | – | inactive: -6.74% |
| COc1cc(CC(=O)NC(c2ccccc2)c2ccccc2)cc(OC)c1OC | active: 21.2 µM | – |
| Cc1cc(C)n(CC2CC(=O)N(c3ccc(C)c(Cl)c3)C2=O)n1 (centres undefined) | inconclusive: 29.9 µM [inhibitor, single point] | – |
| NS(=O)(=O)c1ccc2nc(-c3ccccc3)c(-c3ccccc3)nc2c1 | inconclusive: 18.9 µM [inhibitor, partial curve] | – |
| COc1ccc(OCCC(=O)OCC(=O)NC2CCCCCCC2)cc1 | – | inactive: 1.1% |

Retrieved by structure from above (six):

| SMILES | Potency | max response, negative = inhibition |
| --- | --- | --- |
| CC(=O)N1C(=O)/C(=C2\SC(=S)N(NS(=O)(=O)c3ccc(C)cc3)C2=O)c2ccccc21 | active: 16.8 µM | – |
| COc1ccc(SC[C@H](C)CN2CC[C@H](C(C)(C)C)CCC2=O)cc1 | inconclusive: 11.9 µM [inhibitor, single point] | – |
| NC(=O)NC(CC(=O)OCC(=O)NC(=O)NCc1ccco1)c1ccc(Cl)cc1 (centres undefined) | – | inactive: -6.74% |
| COc1ccc(NC(=O)c2ccc(S(=O)(=O)N(C)c3ccccc3)cc2)cc1S(=O)(=O)N1CCOCC1 | – | inactive: 1.76% |
| Clc1ncccc1-c1nc2ccccc2s1 | inconclusive: 21.2 µM [inhibitor, partial curve] | – |
| O=C(O)c1ccc(COc2ccc(CO)cc2Cl)cc1 | inconclusive: 37.7 µM [inhibitor, single point] | – |

(listing goes on)

| SMILES | Potency | max response, negative = inhibition |
| --- | --- | --- |
| O=C(N/N=C/c1ccc(-c2ccccc2[N+](=O)[O-])o1)c1cccnc1 | inconclusive: 23.8 µM [inhibitor, partial curve] | – |
| Cc1ccc(CSC2=Nc3ccccc3C3=NC(=O)CN23)cc1 | inconclusive: 26.7 µM [inhibitor, single point] | – |
| COc1ccc(CNc2ccc(C)cc2)cc1Br | – | inactive: -7.39% |
| [O-]c1n[n+](-c2ccc(Cl)cc2)cc2ccccc12 | active: 3.36 µM | – |
| O=C1CC(N(O)C2CC(=O)N(Cc3ccccc3)C2=O)C(=O)N1Cc1ccccc1 (centres undefined) | active: 23.8 µM | – |
| CC(C)(C)NC(=O)NC(=O)CSc1ccc(S(=O)(=O)N2CCOCC2)cn1 | – | inconclusive: -31.5% [inhibitor] |
| CC(C)C1Cc2c(sc3[nH]c(=S)n(Cc4ccccc4)c(=O)c23)CO1 (centres undefined) | inconclusive: 29.9 µM [inhibitor, single point] | – |
| Cc1nc([N+](=O)[O-])c(Br)n1Cc1ccccc1 | inconclusive: 16.8 µM [inhibitor, partial curve] | – |
| CC(NS(=O)(=O)c1ccccc1Cl)C1CC2CCC1C2 (centres undefined) | inconclusive: 15 µM [inhibitor, partial curve] | – |
| COc1ccc(C(=O)NCC2(c3ccccc3)CCOCC2)cc1[N+](=O)[O-] | active: 11.9 µM | – |
| Cc1onc(-c2c(Cl)cccc2Cl)c1C(=O)NC(=S)Nc1sc2c(c1C(N)=O)CCC(C)C2 (centres undefined) | inconclusive: 75.2 µM [inhibitor, partial curve] | – |
| C/C(=N\NC(=O)CN(c1ccc(C)cc1)S(C)(=O)=O)c1cccs1 | – | inactive: -14.8% |
| O=C(Cn1nc(C(=O)O)c2ccccc2c1=O)c1cc(F)ccc1F | active: 16.8 µM | – |
| CCOc1ccc(OCC)c(NC(=O)C2CCN(S(=O)(=O)c3ccc4c(c3)CC(C)N4C(C)=O)CC2)c1 (centres undefined) | active: 29.9 µM | – |
| Nc1nc(-c2ccc(Br)s2)c(Br)s1 | inconclusive: 26.7 µM [inhibitor, partial curve] | – |
| COc1cc(NC(=O)c2ccc(N3CCCC3=O)cc2)cc(OC)c1 | – | inactive: -3.38% |
| C/C(CC(=O)NC12CC3CC(CC(C3)C1)C2)=N\NC(=O)c1cnccn1 | inconclusive: 26.7 µM [inhibitor, single point] | – |
| CCOC(=O)N1CCC(NC(=O)c2cc3c(-c4ccccc4F)nn(C)c3s2)CC1 | – | inactive: -2.08% |
| Cc1ccc(C2CC(C(F)F)n3ncc(C(=O)Nc4c(C)nn(Cc5c(F)cccc5Cl)c4C)c3N2)cc1 (centres undefined) | – | inconclusive: -30.5% [inhibitor] |
| COc1ccc(/C=C2\SC(=S)N(NS(=O)(=O)c3ccccc3)C2=O)c(OC)c1 | inconclusive: 21.2 µM [inhibitor, single point] | – |
| CC(C)c1nc(SCC(=O)Nc2ccc(C(=O)O)cc2)c2c3c(sc2n1)CCCC3 | inconclusive: 37.7 µM [inhibitor, single point] | – |
| CCOCCCn1c(=S)[nH]c2cc(C(=O)NC3CCCCC3C)ccc2c1=O (centres undefined) | – | inactive: -14.7% |
| Cn1nnnc1SCC1=C(C(=O)O)N2C(=O)C(NC(=O)C3CC3c3ccccc3)C2SC1 (centres undefined) | inconclusive: 26.7 µM [inhibitor, partial curve] | – |

| SMILES | Potency | max response, negative = inhibition |
| --- | --- | --- |
| O=C1C(=C2CCCCC2)SC(=S)N1Cc1ccco1 | active: 21.2 µM | – |
| CC(=O)Nc1ccc(NC(=O)CC2SC(=O)N(CC(=O)c3ccccc3)C2=O)cc1 (centres undefined) | inconclusive: 8.44 µM [inhibitor, partial curve] | – |
| COc1ccc(CC(=O)NC(C)c2nnc(SCCOc3ccc(OC)cc3)n2C)cc1 (centres undefined) | – | inactive: -5.62% |
| CC(=O)Nc1ccc(S(=O)(=O)NCC(=O)NNC(=O)COc2ccccc2Cl)cc1 | active: 18.9 µM | – |
| CN(C)S(=O)(=O)c1cccc(NC(=O)CSc2cccc3cccnc23)c1 | active: 10.6 µM | – |
| COc1cc2nc(C)sc2cc1SC | active: 23.8 µM | – |
| COc1ccc(-c2cc(C(=O)NC(Cc3c[nH]c4ccccc34)C(=O)O)c(C)o2)cc1OC (centres undefined) | active: 13.4 µM | – |
| COc1cccc(C(=O)Nc2nnc(C3CCCO3)s2)c1 (centres undefined) | – | inconclusive: -34% [inhibitor] |
| COc1ccccc1C=C1SC(=S)NC1=O | active: 26.7 µM | – |
| Cc1ccc(C)c(S(=O)(=O)Nc2ccc(O)c(Sc3ncn[nH]3)c2)c1 | inconclusive: 23.8 µM [inhibitor, single point] | – |
| CCOc1ccccc1NC(=O)CCS(=O)(=O)c1ccc(Br)cc1 | active: 29.9 µM | – |
| COc1ccc2[nH]c(=O)c(CNc3ccccc3C)cc2c1 | inconclusive: 15 µM [inhibitor, partial curve] | – |
| Cn1cc(/C=C2\SC(=S)N(NC(=O)c3cccc(Cl)c3)C2=O)c2ccccc21 | inconclusive: 37.7 µM [inhibitor, single point] | – |
| O=C(COC(=O)c1ccc2ccccc2c1O)NCC(F)(F)F | active: 26.7 µM | – |
| Cc1cccc(N2CC(C(=O)Nc3nnc(SCC(=O)NCC4CCCO4)s3)CC2=O)c1 (centres undefined) | inconclusive: 29.9 µM [inhibitor, partial curve] | – |
| O=C1CCCCc2cc(O)c(O)cc21 | inconclusive: 37.7 µM [inhibitor, single point] | – |
| O=C(Nc1cccc(F)c1)C1CC(=O)N(c2ccc(Cl)cc2)C1 (centres undefined) | inconclusive: 21.2 µM [inhibitor, partial curve] | – |
| Cc1cc(/C=C2\C(=N)N3N=C(C(C)C)SC3=NC2=O)c(C)n1Cc1ccccc1 | – | inactive: -4.46% |
| Cc1nc2ccc(NC(=O)[C@@H](NC(=O)c3c(F)cccc3F)C(C)C)cc2s1 | – | inactive: -4.75% |
| COc1cccc(NC(=S)NNC(=O)C(C)n2nc(C)c([N+](=O)[O-])c2C)c1 (centres undefined) | inconclusive: 18.9 µM [inhibitor, partial curve] | – |
| COC(=O)/C(=C/c1c[nH]c2ccccc12)[N+](=O)[O-] | active: 2.38 µM | – |
| CCCn1nc(-c2ccccc2)c2nc3ccccc3nc21 | active: 16.8 µM | – |
| Brc1ccc(-c2csc(NNC3=NCCCCC3)n2)cc1 | inconclusive: 16.8 µM [inhibitor, partial curve] | – |
